Publication PMC8384837
Numbering of substitutions follows the chain as printed. The list shows a part of the results. For some of these results: At the low end of the ranking the order means little.

What was measured:
Conditions in all cases: yeast three-hybrid, YBZ-1, SC-Leu-His + 0.5 mM 3-AT, 4 days
[1] = molecular target: T1, PUM1 PUF domain R2-RRG N899R + Y900R + Q903G (Homo sapiens) (UniProt Q14671)
T1 sequence: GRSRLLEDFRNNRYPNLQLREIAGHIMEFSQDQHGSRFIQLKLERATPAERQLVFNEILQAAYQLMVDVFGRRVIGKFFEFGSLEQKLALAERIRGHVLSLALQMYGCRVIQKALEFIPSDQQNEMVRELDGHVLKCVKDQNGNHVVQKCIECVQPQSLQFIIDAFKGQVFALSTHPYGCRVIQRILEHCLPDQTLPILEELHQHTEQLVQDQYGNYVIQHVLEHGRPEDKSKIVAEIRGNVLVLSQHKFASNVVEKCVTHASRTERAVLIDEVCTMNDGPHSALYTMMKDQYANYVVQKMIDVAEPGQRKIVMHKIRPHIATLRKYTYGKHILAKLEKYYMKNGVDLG

[2] = molecular target: T2, PUM1 PUF domain R2-RRQ N899R + Y900R (Homo sapiens) (UniProt Q14671)
T2 sequence: T1 sequence with G76Q

[3] = molecular target: T3, PUM1 PUF domain R2-RRT N899R + Y900R + Q903T (Homo sapiens) (UniProt Q14671)
T3 sequence: T1 sequence with G76T

[4] = molecular target: T4, PUM1 PUF domain R2-RRV N899R + Y900R + Q903V (Homo sapiens) (UniProt Q14671)
T4 sequence: T1 sequence with G76V

[5] = molecular target: T5, PUM1 PUF domain R2-RTS N899R + Y900T + Q903S (UniProt Q14671)
T5 sequence: T1 sequence with R73T, G76S

[6] = molecular target: T6, PUM1 PUF domain R2-RVE N899R + Y900V + Q903E (UniProt Q14671)
T6 sequence: T1 sequence with R73V, G76E

[7] = molecular target: T7, PUM1 PUF domain R2-SIP N899S + Y900I + Q903P (UniProt Q14671)
T7 sequence: T1 sequence with R72S, R73I, G76P

[8] = molecular target: T8, PUM1 PUF domain R3-ASE C935A + R936S + Q939E (UniProt Q14671)
T8 sequence: T1 sequence with R72N, R73Y, G76Q, C108A, R109S, Q112E

[9] = molecular target: T9, PUM1 PUF domain R3-ATE C935A + R936T + Q939E (UniProt Q14671)
T9 sequence: T1 sequence with R72N, R73Y, G76Q, C108A, R109T, Q112E

[10] = molecular target: T10, PUM1 PUF domain R3-ERS C935E + Q939S (UniProt Q14671)
T10 sequence: T1 sequence with R72N, R73Y, G76Q, C108E, Q112S

[11] = molecular target: T11, PUM1 PUF domain R3-FCL C935F + R936C + Q939L (Homo sapiens) (UniProt Q14671)
T11 sequence: T1 sequence with R72N, R73Y, G76Q, C108F, R109C, Q112L

[12] = molecular target: T12, PUM1 PUF domain R3-FCS C935F + R936C + Q939S (Homo sapiens) (UniProt Q14671)
T12 sequence: T1 sequence with R72N, R73Y, G76Q, C108F, R109C, Q112S

[13] = molecular target: T13, PUM1 PUF domain R3-FCV C935F + R936C + Q939V (UniProt Q14671)
T13 sequence: T1 sequence with R72N, R73Y, G76Q, C108F, R109C, Q112V

[14] = molecular target: T14, PUM1 PUF domain R3-FIA C935F + R936I + Q939A (UniProt Q14671)
T14 sequence: T1 sequence with R72N, R73Y, G76Q, C108F, R109I, Q112A

[15] = molecular target: T15, PUM1 PUF domain R3-FIG C935F + R936I + Q939G (UniProt Q14671)
T15 sequence: T1 sequence with R72N, R73Y, G76Q, C108F, R109I, Q112G

[16] = molecular target: T16, PUM1 PUF domain R3-FRG C935F + Q939G (Homo sapiens) (UniProt Q14671)
T16 sequence: T1 sequence with R72N, R73Y, G76Q, C108F, Q112G

[17] = molecular target: T17, PUM1 PUF domain R3-FRL C935F + Q939L (Homo sapiens) (UniProt Q14671)
T17 sequence: T1 sequence with R72N, R73Y, G76Q, C108F, Q112L

[18] = molecular target: T18, PUM1 PUF domain R3-FRP C935F + Q939P (Homo sapiens) (UniProt Q14671)
T18 sequence: T1 sequence with R72N, R73Y, G76Q, C108F, Q112P

[19] = molecular target: T19, PUM1 PUF domain R3-FSE C935F + R936S + Q939E (UniProt Q14671)
T19 sequence: T1 sequence with R72N, R73Y, G76Q, C108F, R109S, Q112E

[20] = molecular target: T20, PUM1 PUF domain R3-FSS C935F + R936S + Q939S (UniProt Q14671)
T20 sequence: T1 sequence with R72N, R73Y, G76Q, C108F, R109S, Q112S

| Sequence | binding signal (log2 enrichment (interaction score)) [1] | binding signal (log2 enrichment (interaction score)) [2] | binding signal (log2 enrichment (interaction score)) [3] | binding signal (log2 enrichment (interaction score)) [4] | binding signal (log2 enrichment (interaction score)) [5] | binding signal (log2 enrichment (interaction score)) [6] | binding signal (log2 enrichment (interaction score)) [7] | binding signal (log2 enrichment (interaction score)) [8] | binding signal (log2 enrichment (interaction score)) [9] | binding signal (log2 enrichment (interaction score)) [10] | binding signal (log2 enrichment (interaction score)) [11] | binding signal (log2 enrichment (interaction score)) [12] | binding signal (log2 enrichment (interaction score)) [13] | binding signal (log2 enrichment (interaction score)) [14] | binding signal (log2 enrichment (interaction score)) [15] | binding signal (log2 enrichment (interaction score)) [16] | binding signal (log2 enrichment (interaction score)) [17] | binding signal (log2 enrichment (interaction score)) [18] | binding signal (log2 enrichment (interaction score)) [19] | binding signal (log2 enrichment (interaction score)) [20] |
| --- | --- | --- | --- | --- | --- | --- | --- | --- | --- | --- | --- | --- | --- | --- | --- | --- | --- | --- | --- | --- |
| GGCUAGAACUAGUGGAUCCCCCGGCGCCCGGCGGCUCGAGCCCGGGUAAGUGUAAAUAGUCUGCAUGCCGCCGGGCGCCAUGCCUGCAGGUCGACUCUAGAAAACAUG | -4.94 | -5.99 | -3.68 | -2.72 | < -9.06 | < -7.32 | < -6.21 | < -7.54 | -3.76 | -5.3 | -0.45 | -0.92 | -3.29 | < -8.7 | -10.2 | -0.78 | 0.32 | -2.24 | < -8.25 | < -8.9 |
| GGCUAGAACUAGUGGAUCCCCCGGCGCCCGGCGGCUCGAGCCCGGGUAAGUGUAAAAAGUCUGCAUGCCGCCGGGCGCCAUGCCUGCAGGUCGACUCUAGAAAACAUG | -1.88 | -0.2 | -1.11 | -0.72 | < -9.29 | < -7.22 | -6.02 | – | – | – | – | – | – | – | – | – | – | – | – | – |
| GGCUAGAACUAGUGGAUCCCCCGGCGCCCGGCGGCUCGAGCCCGGGUAAGUGUAAUUAGUCUGCAUGCCGCCGGGCGCCAUGCCUGCAGGUCGACUCUAGAAAACAUG | – | – | – | – | – | – | – | < -6.71 | -4.6 | -3.68 | -2.29 | -0.36 | < -6.38 | < -7.36 | < -8.96 | 0 | -0.12 | -0.34 | < -8 | -2.43 |
